Results are given in words; binding and its absence hold for the method and conditions named. Some entries that bind do so weakly or less than the wild type.
T1: human CaMKII-α hub domain (human), Q9UQM7
T1 chain: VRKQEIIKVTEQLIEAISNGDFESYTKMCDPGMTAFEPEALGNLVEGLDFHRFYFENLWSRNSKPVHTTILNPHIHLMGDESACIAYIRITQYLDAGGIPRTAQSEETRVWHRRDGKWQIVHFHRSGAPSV


Legend:
[1] = biological target: T1, human CaMKII-α hub domain (human), …; experiment: fluorescence polarisation; competition: 2 nM BODIPY labelled peptide bound to 30 μM hub, unlabeled peptide 0-500 μM added; KD from a non-linear fit assuming one peptide site per subunit and equal KD of labelled and unlabeled peptide; both purified; conditions: remark: other sources report otherwise
[2] = biological target: human CaMKII-α hub domain (human) (UniProt Q9UQM7); experiment: as above

Row | binding [1] | binding [2] | Binder
1 | no binding (tested: 500 μM) |  | LKEFNAERKLEGAILTTMLA [Peptide G (human CaMKII-α 290-309, … variant)]
2 |  | binds weakly | LKKFNAERKLKGAILTTMLA [Peptide E (human CaMKII-α 290-309, … variant)]
3 |  | binds weakly | LKKFNARRKLEGAILTTMLA [Peptide F (human CaMKII-α 290-309, … variant)]
